Experimental data published in PMC8408156.
These are yes or no findings as the source states them, for the method shown. Binding can be weak; no strength is given.

Target: integrin αVβ3
Assay: ELISA; receptor-ligand in vitro binding assay: integrin αVβ3 coated on a high-binding 96-well plate in carbonate-bicarbonate buffer (4 °C overnight), blocked with PBS (0.1% Tween, 1% BSA); IBSP with or without natural compounds incubated 2 h at room temperature; bound IBSP detected with goat anti-IBSP and AP- or HRP-tagged anti-goat IgG, absorbance read; both purified

binding: binds
B1: Integrin-Binding Sialoprotein (IBSP) (ligand, UniProt P21815 17-317)
chain: FSMKNLHRRVKIEDSEENGVFKYRPRYYLYKHAYFYPHLKRFPVQGSSDSSEENGDDSSEEEEEEEETSNEGENNEESNEDEDSEAENTTLSATTLGYGEDATPGTGYTGLAAIQLPKKAGDITNKATKEKESDEEEEEEEEGNENEESEAEVDENEQGINGTSTNSTEAENGNGSSGGDNGEEGEEESVTGANAEDTTETGRQGKGTSKTTTSPNGGFEPTTPPQVYRTTSPPFGKTTTVEYEGEYEYTGANEYDNGYEIYESENGEPRGDNYRAYEDEYSYFKGQGYDGYDGQNYYHHQ
